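Whole-cell assay for inhibitors of Mycobacterium tuberculosis growth, labelled Cornell in the record; the read-out is not stated. The concentration is filed as 10 mM, unlikely as a test dose, so the dose is not known. Higher means stronger inhibition (inferred from two other growth screens of the library). Of about 53,000 compounds tested this way, about 900 (1.7%) reached 50% or more in at least one test.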

Results are given as percent effect.
The record does not define 0% and 100%; most values in the screen are far below 50% and negative numbers occur (in some assays of this library far below -100).
The compounds are a random part of those screened.

| # | structure | Percent Effect |
|---|---|---|
| 1 | `[H][C@]1([C@H](O)c2ccc(NC(=O)c3ccco3)cc2)COCC(=O)N1` | -14.18 |
| 2 | `COC(=O)c1ccc(C(=O)N2CCc3c(ncn3C3CC3)C2)cc1` | 3.777 |
| 3 | `COc1ncc(C2CC(=O)NCc3nc4ccccn4c32)cn1` (stereo not shown) | -44.32 |
| 4 | `CS(=O)(=O)N1CC(c2nc(N)ncc2-c2ccc(F)cc2)C1` | 26.29 |
| 5 | `CN(C)CC(=O)N1Cc2ncn(C)c2C(COCC2CCOCC2)C1` (stereo not shown) | 34.83 |
| 6 | `c1csc(-c2noc(CC3CCCO3)n2)c1` (stereo not shown) | -17.43 |
| 7 | `O=C(CN(CC1CCC1)CC(F)(F)F)N1CCOCC1` | 17.59 |
| 8 | `Cc1cccc(CNc2n[nH]c(C)n2)c1` | 0.07624 |
| 9 | `CN(C)C(=O)c1ccc(CNC(=O)NCCN(C)C2CCCC2)cc1` | 5.072 |
| 10 | `COCC(=O)N1CCC2(CC1)COC(COCc1ccccn1)C2.O=C(O)C(F)(F)F` (stereo not shown) | 14.78 |
| 11 | `CC(NC(=O)Cn1cccn1)c1ccc2c(c1)OCCCO2` (stereo not shown) | -35.86 |
| 12 | `CCN(CC)C(=O)c1nnsc1-c1ccc(C)cc1` | 5.816 |
| 13 | `CCO[C@@H]1CO[C@@]2(CCCN(Cc3scnc3C)C2)C1.O=C(O)C(F)(F)F` | 7.336 |
| 14 | `Cc1ccc(OCCC(=O)NC2CCc3nccn3C2)cc1` (stereo not shown) | 28.63 |
| 15 | `Cc1cc(NC(=O)CCn2nc(C)c3ccccc32)n(C(C)C)n1` | 11.16 |
| 16 | `COCCOCC(=O)N1CCCC(c2ncc[nH]2)C1` (stereo not shown) | -3.975 |
| 17 | `Cc1nn(CC(C)C)c(C)c1CC(=O)N1CCCC(NS(C)(=O)=O)C1` (stereo not shown) | -0.9614 |
| 18 | `CC(=O)N1CCCC1(C)c1nc(C)no1` (stereo not shown) | -3.847 |
| 19 | `CN(C)C(=O)NCC(=O)N(C)Cc1cc(-c2ccccc2)no1` | 13.14 |
| 20 | `O=C(O)C(F)(F)F.[H][C@@]12CC(COCc3ccccn3)C[C@@]1([H])N(C(=O)c1ccno1)CCO2` (stereo partly shown) | -9.828 |
| 21 | `CCc1cnc(CNc2ccc(C(=O)N3CCCC(C)C3)cc2C)o1` (stereo not shown) | 19.5 |
| 22 | `Cc1cccc(CN2CCC(c3nccn3CC(N)=O)CC2)n1` | -5.622 |
| 23 | `Cc1noc(C(C)C)c1C(=O)NCc1ccc(N(C)C)c(F)c1` | 4.994 |
| 24 | `CO[C@@H]1CCN(Cc2ccc(C)o2)[C@H]1Cc1ccccc1.O=C(O)C(F)(F)F` | 44.09 |
| 25 | `[H][C@@]12CCN(C(=O)Cc3ccccc3C)C[C@]1(COC)CCO2` | 7.914 |
| 26 | `O=C(COC1CCCC1)NCCc1nc(-c2ccccn2)cs1` | 19.12 |
| 27 | `Cc1cccc(CN2CCN(C(=O)[C@@H]3CSCN3C)CC2)c1` | 7.388 |
| 28 | `CC[C@H](C)Nc1ncc(-c2cccc(NC(=O)CNC)c2)cn1` | 9 |
| 29 | `Nc1cc(C(=O)NCC2CCN(CCc3ccccc3)C2)ccn1` (stereo not shown) | 12.78 |
| 30 | `CCC1(c2ccc(NS(=O)(=O)c3cccs3)cc2)CCC(=O)NC1=O` (stereo not shown) | 6.161 |
| 31 | `O=S(=O)(NCCC(O)c1cccs1)c1ccccc1Cl` (stereo not shown) | 17.06 |
| 32 | `O=C(O)CSc1nnc(-c2cn[nH]c2)n1-c1ccccc1C(F)(F)F` | 20.13 |
| 33 | `CC(=O)N1CCN(c2cncc(C3CCNCC3)n2)CC1.Cl` | -17.16 |
| 34 | `CC(C)(N)CN1CCC(c2nnc(CN3CCCC3)n2C2CC2)CC1` | -1.477 |
| 35 | `Cl.Cl.OC(CN1CCN(Cc2ccc(F)c(F)c2)CC1)C1CC1` (stereo not shown) | -2.094 |
| 36 | `CCn1nc(C)c2ccn(CC(=O)NCCN3CCCCC3)c(=O)c21` | 18.21 |
| 37 | `Cc1ccc(C)c(S(=O)(=O)NC(=O)c2cccc3c2OCCO3)c1` | 17.3 |
| 38 | `Cn1ncc2ccc(C3CCCN(C(=O)Cc4cccs4)C3)nc21` (stereo not shown) | -28.24 |
| 39 | `CC[C@H]1NCCC[C@]12CCC(=O)N2Cc1ccncc1` | 3.869 |
| 40 | `CC(C)C(C(=O)N1CCN(Cc2cscn2)CC1)n1cncn1` (stereo not shown) | 16.31 |
| 41 | `CN(c1ccc(C(N)=O)nn1)C1CCC1` | 14.57 |
| 42 | `CN(CCc1ccccn1)Cc1nccn1Cc1ccccc1` | -9.028 |
| 43 | `Cc1cccc(C(C(=O)NCc2nc(-c3cccnc3)no2)N(C)C)c1` (stereo not shown) | -30.93 |
| 44 | `CCC/C=C/c1ccc(CN2CCCC2)cn1` | 18.51 |
| 45 | `N#Cc1cc(F)ccc1NCc1ccc(Cn2cncn2)cc1` | 6.695 |
| 46 | `CN(C)CCN(C)C(=O)NC1CCC(Oc2ccccc2C#N)CC1` (stereo not shown) | 8.245 |
| 47 | `O=C(Cc1ccc(F)cc1Cl)N1C[C@@H](CN2CCC(O)CC2)[C@@H](CO)C1` | -34.23 |
| 48 | `Cc1ccc(OCCNc2cccc(C(=O)N3CCOCC3)c2)cc1` | -7.796 |
| 49 | `CCC(=O)N1CCC(c2ncc3c(n2)CCNC3)CC1` | -31.27 |
| 50 | `COc1ccnc(NCC2CN(C3CC3)CCO2)n1` (stereo not shown) | -13.92 |
| 51 | `CCOCC(=O)N1CCCn2c(CN3CCOCC3)nnc2C1` | 18.04 |
| 52 | `CNC(=O)CS(=O)(=O)NC1CCC(C)CC1` (stereo not shown) | -17.27 |
| 53 | `O=c1ccc(-n2cccn2)nn1CCNS(=O)(=O)c1ccc(F)c(Cl)c1` | -21.67 |
| 54 | `CCOCc1ccccc1NC(=O)NCC(C)(O)c1cc(C)oc1C` (stereo not shown) | 27.5 |
| 55 | `O=C(NCCCF)Nc1ccc2nc(N3CCOCC3)oc2c1` | -11.27 |
| 56 | `O=C(Cc1ccc2c(c1)CCC2)NCCNc1cnccn1` | -33.45 |

For reference, 4 entries once more:

{"structure": "CC[C@H]1NCCC[C@]12CCC(=O)N2Cc1ccncc1", "Percent Effect": 3.869}
{"structure": "N#Cc1cc(F)ccc1NCc1ccc(Cn2cncn2)cc1", "Percent Effect": 6.695}
{"structure": "O=S(=O)(NCCC(O)c1cccs1)c1ccccc1Cl", "stereo": "stereo not shown", "Percent Effect": 17.06}
{"structure": "O=c1ccc(-n2cccn2)nn1CCNS(=O)(=O)c1ccc(F)c(Cl)c1", "Percent Effect": -21.67}

Data taken from ChEMBL document CHEMBL3988442, “University of Dundee, Small-Polar-MMV Screening Library” (2021).